Laboratory results: paper PMC11025288

Protein sequences, listed by entry. Tags and fused reporters are not part of them.
UniProt Q96LA8: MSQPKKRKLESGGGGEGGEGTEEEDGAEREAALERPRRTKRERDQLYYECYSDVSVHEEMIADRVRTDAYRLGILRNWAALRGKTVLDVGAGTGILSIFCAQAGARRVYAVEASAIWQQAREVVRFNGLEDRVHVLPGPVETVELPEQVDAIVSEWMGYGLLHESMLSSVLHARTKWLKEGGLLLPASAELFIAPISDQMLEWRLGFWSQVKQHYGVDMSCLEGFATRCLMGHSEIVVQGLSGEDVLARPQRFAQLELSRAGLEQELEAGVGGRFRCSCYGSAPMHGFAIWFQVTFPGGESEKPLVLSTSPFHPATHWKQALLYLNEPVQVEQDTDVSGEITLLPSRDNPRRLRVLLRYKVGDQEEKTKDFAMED
UniProt P50750: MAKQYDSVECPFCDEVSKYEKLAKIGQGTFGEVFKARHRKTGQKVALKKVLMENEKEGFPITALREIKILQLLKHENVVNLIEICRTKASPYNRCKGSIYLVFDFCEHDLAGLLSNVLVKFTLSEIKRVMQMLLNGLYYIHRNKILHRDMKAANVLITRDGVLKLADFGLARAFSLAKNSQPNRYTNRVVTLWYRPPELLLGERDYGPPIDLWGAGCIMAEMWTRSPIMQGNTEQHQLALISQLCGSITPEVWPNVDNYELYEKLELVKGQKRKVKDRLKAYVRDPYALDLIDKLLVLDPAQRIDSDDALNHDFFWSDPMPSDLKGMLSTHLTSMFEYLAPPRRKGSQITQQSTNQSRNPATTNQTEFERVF

Target: Protein arginine methyltransferase 6 (human (endogenous in LN229 and U251)) (UniProt Q96LA8)
Assay: affinity purification with mass spectrometry; proteins binding PRMT6 in LN229 and U251 cells identified by mass spectrometry; hits shared by both cell lines; how PRMT6 was isolated is not told

CDK9 (from UniProt P50750 1-372) (enzyme)
binding: binds

These are yes or no findings as the source states them, for the method shown. Binding seen in cells or lysates may run through a third protein. A yes stands for co-enrichment or nearness to the bait. Other partners may have been found.
